Literature values as cited in patent US8153167B2, “Herbal medicine for osteoporosis and related conditions” (Medipearl Pte Ltd., priority 2007, dated 2012).
For at least one compound, name, drawing or mass did not settle the structure.

System: UMR 106 cell line
Conditions: UMR 106 cells in vitro; Wang et al. 2001, Meng et al. 2004; cited from earlier work

Compound: CC(C)=CCc1cc(-c2coc3cc(O)cc(O)c3c2=O)ccc1O [Corylin, corylin]
- osteoblastic proliferation activity: exhibited osteoblastic proliferation stimulating activity
